Assay results taken from article PMC3738564.
Results are given in words; binding and its absence hold for the method and conditions named. In cells and extracts the contact can be indirect. A yes stands for co-enrichment or nearness to the bait. Other partners may have been found. For some of these results: A no says only that the protein was not detected with the bait. Values belong to the molecule of their own block, whether it stands above or below them.

Amino acid sequences for entries named in this document (tags omitted).
UniProt P11531: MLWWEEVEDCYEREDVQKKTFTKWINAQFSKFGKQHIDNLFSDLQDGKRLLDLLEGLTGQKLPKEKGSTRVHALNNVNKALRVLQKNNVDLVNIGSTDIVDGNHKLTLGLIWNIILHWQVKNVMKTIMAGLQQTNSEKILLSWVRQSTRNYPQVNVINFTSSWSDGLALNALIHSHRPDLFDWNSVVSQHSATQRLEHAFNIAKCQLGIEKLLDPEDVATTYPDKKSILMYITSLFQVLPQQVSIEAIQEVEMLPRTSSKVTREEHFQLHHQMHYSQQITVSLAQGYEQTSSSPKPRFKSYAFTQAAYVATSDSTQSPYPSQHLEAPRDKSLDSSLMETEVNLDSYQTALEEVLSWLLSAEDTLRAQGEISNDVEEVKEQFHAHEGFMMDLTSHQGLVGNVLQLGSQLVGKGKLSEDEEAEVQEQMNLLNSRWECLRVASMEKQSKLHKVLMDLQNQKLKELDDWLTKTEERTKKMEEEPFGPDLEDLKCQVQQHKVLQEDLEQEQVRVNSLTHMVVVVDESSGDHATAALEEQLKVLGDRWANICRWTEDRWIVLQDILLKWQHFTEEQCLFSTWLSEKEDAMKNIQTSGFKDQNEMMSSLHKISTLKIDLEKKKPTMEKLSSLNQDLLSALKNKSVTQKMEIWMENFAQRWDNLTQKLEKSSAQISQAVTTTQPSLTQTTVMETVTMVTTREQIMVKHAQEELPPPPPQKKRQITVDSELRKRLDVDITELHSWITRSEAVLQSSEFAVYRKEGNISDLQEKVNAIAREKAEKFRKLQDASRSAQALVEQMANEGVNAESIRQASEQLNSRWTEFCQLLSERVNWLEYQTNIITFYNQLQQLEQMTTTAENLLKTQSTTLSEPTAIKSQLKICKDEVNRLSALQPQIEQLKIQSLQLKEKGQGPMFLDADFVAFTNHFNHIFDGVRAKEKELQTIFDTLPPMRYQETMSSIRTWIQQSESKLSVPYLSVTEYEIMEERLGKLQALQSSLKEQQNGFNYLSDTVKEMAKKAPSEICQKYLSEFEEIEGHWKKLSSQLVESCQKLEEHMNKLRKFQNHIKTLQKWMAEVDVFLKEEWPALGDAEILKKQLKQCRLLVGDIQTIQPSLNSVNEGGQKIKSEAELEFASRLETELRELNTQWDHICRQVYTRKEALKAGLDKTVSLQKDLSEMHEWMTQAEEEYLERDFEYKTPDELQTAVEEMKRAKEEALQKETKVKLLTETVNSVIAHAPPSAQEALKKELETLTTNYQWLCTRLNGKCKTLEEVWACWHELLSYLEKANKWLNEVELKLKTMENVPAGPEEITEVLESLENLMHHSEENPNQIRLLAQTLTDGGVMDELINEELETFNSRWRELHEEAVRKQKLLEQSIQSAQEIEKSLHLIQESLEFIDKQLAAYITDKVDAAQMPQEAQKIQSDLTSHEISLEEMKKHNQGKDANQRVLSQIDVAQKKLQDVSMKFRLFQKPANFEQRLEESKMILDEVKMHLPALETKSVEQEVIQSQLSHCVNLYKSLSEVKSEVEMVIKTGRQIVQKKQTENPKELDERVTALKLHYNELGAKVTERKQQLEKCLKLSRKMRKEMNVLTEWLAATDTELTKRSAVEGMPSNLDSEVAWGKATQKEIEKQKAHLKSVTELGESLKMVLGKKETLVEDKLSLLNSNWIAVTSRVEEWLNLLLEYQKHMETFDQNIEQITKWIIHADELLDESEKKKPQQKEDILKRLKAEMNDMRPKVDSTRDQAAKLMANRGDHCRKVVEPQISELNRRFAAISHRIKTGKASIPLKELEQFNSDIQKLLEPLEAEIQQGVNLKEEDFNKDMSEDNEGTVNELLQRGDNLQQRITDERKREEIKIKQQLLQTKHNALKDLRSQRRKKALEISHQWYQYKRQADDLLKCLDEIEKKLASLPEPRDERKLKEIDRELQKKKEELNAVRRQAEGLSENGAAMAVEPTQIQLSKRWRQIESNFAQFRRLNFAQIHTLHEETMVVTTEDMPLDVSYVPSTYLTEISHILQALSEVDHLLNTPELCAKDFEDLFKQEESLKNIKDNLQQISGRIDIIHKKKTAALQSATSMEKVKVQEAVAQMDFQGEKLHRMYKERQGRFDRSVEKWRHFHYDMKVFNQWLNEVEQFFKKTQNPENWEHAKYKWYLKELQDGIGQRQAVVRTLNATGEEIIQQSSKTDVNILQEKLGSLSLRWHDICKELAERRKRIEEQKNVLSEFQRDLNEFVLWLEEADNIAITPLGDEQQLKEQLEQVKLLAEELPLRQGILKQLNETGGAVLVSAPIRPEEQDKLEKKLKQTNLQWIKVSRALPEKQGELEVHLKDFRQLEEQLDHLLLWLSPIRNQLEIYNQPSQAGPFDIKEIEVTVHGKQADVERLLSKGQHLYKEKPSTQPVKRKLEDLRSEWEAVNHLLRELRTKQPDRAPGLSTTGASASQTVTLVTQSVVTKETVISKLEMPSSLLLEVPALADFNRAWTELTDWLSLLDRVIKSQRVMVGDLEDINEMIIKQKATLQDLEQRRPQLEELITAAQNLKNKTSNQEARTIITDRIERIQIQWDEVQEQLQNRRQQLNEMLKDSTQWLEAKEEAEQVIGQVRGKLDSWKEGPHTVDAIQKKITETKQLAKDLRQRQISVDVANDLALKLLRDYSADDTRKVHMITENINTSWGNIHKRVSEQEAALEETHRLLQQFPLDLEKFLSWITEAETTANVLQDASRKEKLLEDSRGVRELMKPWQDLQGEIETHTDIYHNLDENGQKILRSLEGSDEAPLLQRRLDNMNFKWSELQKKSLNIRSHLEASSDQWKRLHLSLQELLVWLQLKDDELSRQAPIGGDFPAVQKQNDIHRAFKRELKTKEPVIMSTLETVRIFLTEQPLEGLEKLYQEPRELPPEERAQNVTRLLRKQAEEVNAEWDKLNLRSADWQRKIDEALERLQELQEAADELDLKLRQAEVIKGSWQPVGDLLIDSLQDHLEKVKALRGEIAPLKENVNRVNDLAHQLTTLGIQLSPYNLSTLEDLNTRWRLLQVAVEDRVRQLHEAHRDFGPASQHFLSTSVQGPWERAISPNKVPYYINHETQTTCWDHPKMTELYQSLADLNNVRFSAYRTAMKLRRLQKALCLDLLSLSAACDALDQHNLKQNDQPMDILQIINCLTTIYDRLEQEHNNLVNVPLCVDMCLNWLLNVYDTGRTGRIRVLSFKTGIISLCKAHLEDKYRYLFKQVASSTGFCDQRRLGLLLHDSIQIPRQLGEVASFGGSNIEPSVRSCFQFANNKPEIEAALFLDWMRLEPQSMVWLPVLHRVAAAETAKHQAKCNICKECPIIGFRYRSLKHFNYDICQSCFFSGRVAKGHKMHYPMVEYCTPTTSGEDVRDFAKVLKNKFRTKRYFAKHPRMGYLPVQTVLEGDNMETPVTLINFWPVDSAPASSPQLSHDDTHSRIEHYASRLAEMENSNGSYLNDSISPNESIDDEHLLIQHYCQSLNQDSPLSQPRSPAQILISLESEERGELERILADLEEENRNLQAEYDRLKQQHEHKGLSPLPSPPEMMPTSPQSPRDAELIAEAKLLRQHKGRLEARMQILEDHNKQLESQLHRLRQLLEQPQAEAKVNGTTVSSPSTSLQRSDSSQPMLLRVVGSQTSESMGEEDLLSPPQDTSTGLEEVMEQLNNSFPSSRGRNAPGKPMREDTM
UniProt Q9QWL7: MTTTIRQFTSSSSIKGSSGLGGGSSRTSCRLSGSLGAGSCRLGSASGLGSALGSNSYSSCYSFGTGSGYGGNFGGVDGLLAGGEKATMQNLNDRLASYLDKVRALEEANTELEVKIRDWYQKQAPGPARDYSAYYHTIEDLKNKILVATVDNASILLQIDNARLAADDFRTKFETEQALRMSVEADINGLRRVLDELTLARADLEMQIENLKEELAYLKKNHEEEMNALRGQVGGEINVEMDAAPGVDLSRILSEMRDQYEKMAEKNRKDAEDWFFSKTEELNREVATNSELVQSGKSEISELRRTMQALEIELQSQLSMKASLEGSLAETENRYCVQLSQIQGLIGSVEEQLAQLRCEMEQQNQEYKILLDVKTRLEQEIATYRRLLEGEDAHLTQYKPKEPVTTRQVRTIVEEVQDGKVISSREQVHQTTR

What was measured:
[1] = biological target: full length (427 kDa) dystrophin (mouse (endogenous in skeletal muscle)) (UniProt P11531); experiment: affinity purification with mass spectrometry; 3 dystrophin immunoprecipitations (MANDYS1) from wild type quadriceps; LC-MS/MS on LTQ Orbitrap; proteins of control immunoprecipitations subtracted
[2] = biological target: T1, β-dystroglycan (mouse (endogenous in skeletal muscle)) (UniProt Q62165); experiment: affinity purification with mass spectrometry; 4 β-dystroglycan immunoprecipitations (MANDAG2) from wild type quadriceps; LC-MS/MS on LTQ Orbitrap; proteins of control immunoprecipitations subtracted
T1 sequence: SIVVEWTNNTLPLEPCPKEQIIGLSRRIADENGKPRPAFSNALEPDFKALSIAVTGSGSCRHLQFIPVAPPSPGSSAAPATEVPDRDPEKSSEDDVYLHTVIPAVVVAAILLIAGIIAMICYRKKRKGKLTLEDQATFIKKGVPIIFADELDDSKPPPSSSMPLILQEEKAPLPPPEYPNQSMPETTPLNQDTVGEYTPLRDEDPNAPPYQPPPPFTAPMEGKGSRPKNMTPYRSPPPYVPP

[3] = biological target: full length (427 kDa) dystrophin (mouse (endogenous in skeletal muscle)), P11531; experiment: affinity purification with mass spectrometry; 3 dystrophin immunoprecipitations (MANDYS1) from wild type quadriceps; LC-MS/MS on LTQ Orbitrap; proteins of control immunoprecipitations subtracted; conditions: remark: other sources report otherwise

binding [1]: no binding | binding [2]: binds
Molecule: Keratin, type I cytoskeletal 17 (from UniProt Q9QWL7 1-433)

binding [3]: no binding
B1: β2-syntrophin, Q61235 1-520 (protein)
chain: MAVWTRATKAGLVELLLRERWVRVVAELSGESLSLTGDAAAVEPEPPAAAFNGLPNGGGGESLPGSPNRGLGPPSPPAPPRGPAGEASASPPVRRVRVVKQEAGGLGISIKGGRENRMPILISKIFPGLAADQSRALRLGDAILSVNGTDLRQATHDQAVQALKRAGKEVLLEVKFIREVTPYIKKPSLVSDLPWEGASPQSPSFSGSEDSGSPKHQNTTKDRKVIPLKMCFAARNLSMPDLENRLIELHSPDSRNTLILRCKDTATAHSWFVAIHTNIMALLPQVLAELNAMLGATSTAGGSKEVKHIAWLAEQAKLDGGRQQWRPVLMAVTEKDLLLYDCMPWTRDAWASPCHSYPLVATRLVHSGSGCRSPSLGSDLTFATRTGSRQGIEMHLFRVETHRDLSTWTRILVQGCHAAAELIKEVSLGCTLSGQEVRFTVHYEHGFTITRDNGGASSILYRYPFERLKMSADDGIRNLYLDFGGPEGELTMDLHSCPKPIVFVLHTFLSAKVTRMGLLV

binding [2]: binds
B2: Polymerase I and transcript release factor (Cavin-1) (protein, UniProt O54724 1-392)
chain: MEDVTLHIVERPYSGFPDASSEGPEPTQGEARATEEPSGTGSDELIKSDQVNGVLVLSLLDKIIGAVDQIQLTQAQLEERQAEMEGAVQSIQGELSKLGKAHATTSNTVSKLLEKVRKVSVNVKTVRGSLERQAGQIKKLEVNEAELLRRRNFKVMIYQDEVKLPAKLSVSKSLKESEALPEKEGDELGEGERPEDDTAAIELSSDEAVEVEEVIEESRAERIKRSGLRRVDDFKKAFSKEKMEKTKVRTRENLEKTRLKTKENLEKTRHTLEKRMNKLGTRLVPVERREKLKTSRDKLRKSFTPDHVVYARSKTAVYKVPPFTFHVKKIREGEVEVLKATEMVEVGPEDDEVGAERGEATDLLRGSSPDVHTLLEITEESDAVLVDKSDSD
